Where a name gives a salt, the structure may show the parent alone. Hit rate of the full screen: of about 2,100 compounds, about 180 (8.6%) showed an effect of 50% or more. This is one part of the list.
These molecules were tested on MOLM1 and UCSD/AML1 (averaged) (assay: cell viability relative to DMSO control (POC); higher = less growth inhibition). Conditions: 1 µM; 72 h.
Protocol: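 Primary viability screen in the 3q26 EVI1-high AML cell lines MOLM1 and UCSD/AML1 (1.5e3 cells/well, 384-well), compounds at 1 uM for 72 h. ATP CellTiter-Glo read-out given as percent of viable cells over DMSO control (POC), averaged over duplicates. DMSO was the negative control and 5 uM etoposide the positive control. This mapping covers the MicroSource Spectrum and Selleck anticancer libraries (drug names).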

Compound	cell viability [%]
CNC(=O)c1cc(COc2nnc(Nc3ccc(Cl)cc3)c3ccoc23)ccn1 [Telatinib (BAY 57-9352)]	94.5
CC(C)NC[C@@H](O)COc1cccc2ccccc12	102
CCc1cn([C@H]2C[C@H](O)[C@@H](CO)O2)c(=O)[nH]c1=O	91.5
COCC[n+]1c2c(n(Cc3cnccn3)c1C)C(=O)c1ccccc1C2=O [YM155 (Sepantronium Bromide)]	3.93
C[C@@H]1CCN(C(=O)CC#N)C[C@@H]1N(C)c1ncnc2[nH]ccc12	72.1
CN(C)[C@@H]1C(O)=C(C(=O)NCN2CCCC2)C(=O)[C@@]2(O)C(O)=C3C(=O)c4c(O)cccc4[C@@](C)(O)[C@H]3C[C@@H]12	82.6
Cc1c(N(C)CS(=O)(=O)O)c(=O)n(-c2ccccc2)n1C	92.4
O=c1[nH]c(=O)n(C2CCCO2)cc1F (stereo not given)	99.8
CC(NCCC(c1ccccc1)c1ccccc1)c1ccccc1 (stereo not given)	104
C1CNCCN1	100
COc1c2occc2c(OC)c2c(=O)cc(C)oc12	93.9
Nc1cc(C(Cl)=C(Cl)Cl)c(S(N)(=O)=O)cc1S(N)(=O)=O	101
C[C@H](CCC(=O)O)[C@H]1CC[C@H]2[C@@H]3[C@H](O)C[C@@H]4C[C@H](O)CC[C@]4(C)[C@H]3CC[C@]12C	108
O=C(/C=C/c1ccc(O)c(O)c1)OCCc1ccccc1	64.5
NCC(O)CC(=O)O (stereo not given)	101
NNc1nncc2ccccc12	99.9
CC(=O)OCC(CCn1cnc2cnc(N)nc21)COC(C)=O	99.8
Cc1nc(=O)c2cc(CN(C)c3ccc(C(=O)N[C@@H](CCC(=O)O)C(=O)O)s3)ccc2[nH]1 [Raltitrexed (Tomudex)]	102
CN1CCN(CCCN2c3ccccc3Sc3ccc(Cl)cc32)CC1	102
O=C1c2ccccc2C(=O)c2c1ccc(O)c2O	95.7
CC(=O)O[C@H]1CC[C@@]2(C)[C@@H](CC[C@@H]3[C@@H]2CC(=O)[C@]2(C)[C@@H]4[C@H](C[C@@H]32)O[C@]2(CC[C@@H](C)CO2)[C@H]4C)C1	88.1
CS(=O)(=O)N1CCc2c(-c3cnc(N)nc3)nc(N3CCOCC3)nc21	47.5
COC(=O)/C=C/C(C)=C\C=C\C(C)=C\C=C\C=C(C)\C=C\C=C(C)\C=C\C(=O)O	104

Compound	cell viability [%]
CC(=O)[C@]1(O)Cc2c(O)c3c(c(O)c2[C@@H](O[C@H]2C[C@H](N)[C@H](O)[C@H](C)O2)C1)C(=O)c1ccccc1C3=O [Idarubicin HCl]	1.49
CC(C)C[C@@H](NC(=O)[C@H](C)NC(=O)CNC(=O)[C@@H](NC=O)C(C)C)C(=O)N[C@@H](C)C(=O)N[C@@H](C(=O)N[C@H](C(=O)N[C@H](C(=O)N[C@@H](Cc1c[nH]c2ccccc12)C(=O)N[C@H](CC(C)C)C(=O)N[C@@H](Cc1c[nH]c2ccccc12)C(=O)N[C@H](CC(C)C)C(=O)N[C@@H](Cc1c[nH]c2ccccc12)C(=O)N[C@H](CC(C)C)C(=O)N[C@@H](Cc1c[nH]c2ccccc12)C(=O)NCCO)C(C)C)C(C)C)C(C)C	5.86
O=c1c(O)c(-c2ccc(O)cc2O)oc2cc(O)cc(O)c12	101
COc1cc(-c2coc3cc(O[C@@H]4O[C@H](CO)[C@@H](O)[C@H](O)[C@H]4O)c(OC)c(O)c3c2=O)cc(O)c1OC	95.3
CCC(=O)O[C@]1(C(=O)CCl)[C@@H](C)C[C@H]2[C@@H]3CCC4=CC(=O)C=C[C@]4(C)[C@@]3(F)[C@@H](O)C[C@@]21C	65.7
O=C1C[C@@H](c2ccc(O)cc2)Oc2cc(O)cc(O)c21	88.5
c1ccc([C@H]2CN3CCSC3=N2)cc1	109
O=C1OCCN1/N=C/c1ccc([N+](=O)[O-])o1	101
NC(=O)c1ccc([N+](=O)[O-])cc1Cl	103
CN(C)c1nc(N(C)C)nc(N(C)C)n1	103
CN(C)c1nc(N(C)C)nc(N(C)C)n1 [Altretamine (Hexalen)]	95.9
O.O.O.O.O.O.O.O.O.O.O.O.O.O.O.O.O=S(=O)([O][Al])OC[C@H]1O[C@@](COS(=O)(=O)[O][Al])(O[C@H]2O[C@H](COS(=O)(=O)[O][Al])[C@@H](OS(=O)(=O)[O][Al])[C@H](OS(=O)(=O)[O][Al])[C@H]2OS(=O)(=O)[O][Al])[C@@H](OS(=O)(=O)[O][Al])[C@@H]1OS(=O)(=O)[O][Al]	101
CC(C)NCC(O)c1ccc2ccccc2c1 (stereo not given)	109
CC(=O)O[C@]1(C(C)=O)CC[C@H]2[C@@H]3C[C@H](C)C4=CC(=O)CC[C@]4(C)[C@H]3CC[C@@]21C	103
CC(=O)O[C@]1(C(C)=O)CC[C@H]2[C@@H]3C[C@H](C)C4=CC(=O)CC[C@]4(C)[C@H]3CC[C@@]21C [Medroxyprogesterone acetate]	59.9
C[C@H]1C[C@@H]2[C@H]([C@@H](O)C[C@@]3(C)[C@H]2CC[C@]3(O)C(=O)CO)[C@@]2(C)C=CC(=O)C=C12	67.8
CS(=O)(=O)CCCCN=C=S	84.4
NC(=O)C(c1ccccc1)(c1ccccc1)[C@@H]1CCN(CCc2ccc3c(c2)CCO3)C1	84.9
CCCNCC(O)COc1ccccc1C(=O)CCc1ccccc1 (stereo not given)	95.5
COc1cc([C@@H]2c3cc4c(cc3[C@@H](O[C@@H]3O[C@@H]5CO[C@@H](C)O[C@H]5[C@H](O)[C@H]3O)[C@H]3COC(=O)[C@H]23)OCO4)cc(OC)c1O	59.4
O=C(Nc1ccccc1)Nc1ccccc1	87.7
O=[N+]([O-])c1cccc2cn[nH]c12	102
COc1ccccc1OCC(O)CN1CCN(CC(=O)Nc2c(C)cccc2C)CC1 (stereo not given) [Ranolazine (Ranexa)]	95.2

Compound	cell viability [%]
COc1ccccc1OCC(O)CN1CCN(CC(=O)Nc2c(C)cccc2C)CC1 (stereo not given)	90.8
CCn1cc(C(=O)O)c(=O)c2cnc(N3CCNCC3)nc21	117
NCCS(=O)(=O)O	103
COc1cc2nc(N3CCN(C(=O)c4ccco4)CC3)nc(N)c2cc1OC	97.3
Cc1ccc(NC(=O)c2ccc(CN3CCN(C)CC3)cc2)cc1Nc1nc(-c2cccnc2)cs1 [Masitinib (AB1010)]	25.7
CC(=O)Oc1ccc2c(c1C(C)C)CCC1C(C)(C)CCC[C@]21C (stereo not given in full)	91.9
COc1ccc(-c2cc(=O)c3c(O)cc(O)cc3o2)cc1	91.9
CC(=O)N[C@@H](CC(=O)N[C@@H](CCC(=O)O)C(=O)O)C(=O)O	101
O=c1c(O)cccc2cc(O)c(O)c(O)c12	92
Cc1ccc(S(=O)(=O)NC(=O)NN2CC3CCCC3C2)cc1 (stereo not given)	115
CC(=O)O[C@H]1CC[C@@]2(C)[C@H](CC[C@@H]3[C@@H]2CC[C@]2(C)[C@@H]4[C@H](C[C@@H]32)O[C@]2(CC[C@@H](C)CO2)[C@H]4C)C1	94.2
C#CCN(C)Cc1ccccc1	105
CCn1cc(C(=O)O)c(=O)c2ccc(C)nc21	89.7
C[C@H]1[C@@H](O)O[C@@H]2O[C@@]3(C)CC[C@H]4[C@H](C)CC[C@@H]1[C@@]24OO3	101
CCCCCC(C)N (stereo not given)	89.3
COc1ccc2cc(CCC(C)=O)ccc2c1	103
O=C(O)CCC(=O)OC[C@@H](NC(=O)C(Cl)Cl)[C@H](O)c1ccc([N+](=O)[O-])cc1	40.2
O=C(CCCN1CC=C(n2c(=O)[nH]c3ccccc32)CC1)c1ccc(F)cc1	100
CCN(CC)CCNC(=O)c1cc(S(C)(=O)=O)ccc1OC	102
Oc1c(I)cc(I)c2cccnc12	117
CCN(Cc1ccncc1)C(=O)C(CO)c1ccccc1 (stereo not given)	90.2
OC(CCN1CCCCC1)(c1ccccc1)C1CC2C=CC1C2 (stereo not given)	97.1
Cc1ncc([N+](=O)[O-])n1CCO	95.8

Compound	cell viability [%]
CCN(CC)CC#CCOC(=O)C(O)(c1ccccc1)C1CCCCC1 (stereo not given)	90.2
COc1ccc2[nH]cc(CCNC(C)=O)c2c1	98.6
O=C([O-])c1ccccc1O.[Na+]	102
NC[C@H]1O[C@H](O[C@H]2[C@H](O[C@@H]3O[C@H](CO)[C@@H](O)[C@H]3O)[C@@H](O)[C@H](N)C[C@@H]2N)[C@H](N)[C@@H](O)[C@@H]1O	96.8
NC(=O)N/N=C/c1ccc([N+](=O)[O-])o1	98.5
CCCC(=O)Nc1ncnc2c1ncn2[C@@H]1O[C@@H]2COP(=O)(O)O[C@H]2[C@H]1OC(=O)CCC	95.9
CC(=O)N[C@@H](CCC(=O)O)C(=O)O	103
O=C(CNC(=O)c1ccc(Cl)cc1)NO	107
CC(=O)Oc1cccc(O)c1	92.1
C/C1=C\CCC(=O)C2CC(C)(C)C2CC1 (stereo not given)	93.3
CCN1CCN(C(=O)N[C@@H](C(=O)N[C@@H]2C(=O)N3[C@@H]2SC(C)(C)[C@@H]3C(=O)O)c2ccccc2)C(=O)C1=O	103
CN(NC(=O)CC(=O)NN(C)C(=S)c1ccccc1)C(=S)c1ccccc1 [Elesclomol]	1.23
O=C(NCO)c1cccnc1	106
CO[C@@H]1[C@@H](OC(N)=O)[C@@H](O)[C@H](Oc2ccc3c(O)c(NC(=O)c4ccc(O)c(CC=C(C)C)c4)c(=O)oc3c2C)OC1(C)C	95.7
CC1(C)OC(=O)NC1=O	114
COc1ccc(NS(=O)(=O)c2ccc(N)cc2)nn1	100
Nc1ccc(C(=O)NCC(=O)O)cc1	94.9
CCC[C@H](N[C@@H](C)C(=O)N1[C@H](C(=O)O)C[C@@H]2CCCC[C@@H]21)C(=O)OCC	87.8
Cn1nnnc1SCC1=C(C(=O)O)N2C(=O)[C@@H](NC(=O)[C@H](O)c3ccccc3)[C@H]2SC1	106
OCCN1CCN(CCCN2c3ccccc3Sc3ccc(Cl)cc32)CC1	85.8
CN(C)CCc1c[nH]c2ccc(Cn3cncn3)cc12	92.9

Laid out differently: entries from further up
Compound | cell viability [%]
CCN(CC)CC#CCOC(=O)C(O)(c1ccccc1)C1CCCCC1 (stereo not given) | 90.2
COc1ccc2[nH]cc(CCNC(C)=O)c2c1 | 98.6
O=C([O-])c1ccccc1O.[Na+] | 102
NC[C@H]1O[C@H](O[C@H]2[C@H](O[C@@H]3O[C@H](CO)[C@@H](O)[C@H]3O)[C@@H](O)[C@H](N)C[C@@H]2N)[C@H](N)[C@@H](O)[C@@H]1O | 96.8
NC(=O)N/N=C/c1ccc([N+](=O)[O-])o1 | 98.5
CCCC(=O)Nc1ncnc2c1ncn2[C@@H]1O[C@@H]2COP(=O)(O)O[C@H]2[C@H]1OC(=O)CCC | 95.9
CC(=O)N[C@@H](CCC(=O)O)C(=O)O | 103

— the supplement of paper PMC11150407
